# PubChem BioAssay AID1224826 | NIAID | 2016
# Purpose: 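Knock-downs that raise or lower Tnf reporter signal after endotoxin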 (primary screen)
# System: RAW264.7 G9 macrophages from mouse bearing reporters for p65 (GFP) and the Tnf promoter (mCherry)
# Knock-down reagent: siRNA pool against mouse genes, 100 nM
# Duration: 16 h of LPS stimulation, after 2 days of siRNA transfection
# Challenge: bacterial lipopolysaccharide (Salmonella minnesota R595), 10 ng/ml
# Read-out: 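Nuclear mCherry signal of the Tnf promoter reporter measured by imaging after background removal, scaled to each plate median and turned into robust z-scores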
# Reading the numbers: Tnf reporter robust z-score: higher = stronger Tnf promoter reporter signal after LPS; Tnf reporter intensity: higher = stronger Tnf promoter reporter signal
# Call rule: 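a well counts as active at a score of -1.3 or below (Tlr4 knock-down control median) or above 3 (raised signal); controls and wells holding fewer than 50 cells are excluded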
# Meaning of the calls: active = Tnf reporter clearly lowered or raised; inactive = no clear change in Tnf reporter
# This is a random part of about 17,000 reagents tested. About 1,110 of all reagents (6.6%) count as active. 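Active means lowered or raised reporter signal; replicate intensities are raw and not normalised per plate.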 Entries without a mark were called inactive. No sequences are given here.
gene,Tnf reporter robust z-score,fewer than 50 cells in well,"Tnf reporter intensity, replicate 1","Tnf reporter intensity, replicate 2"
Or52w1,3.2 (active),enough cells in well,150,315
Gpr153,1.85,enough cells in well,322,147
Tmprss11e,2.21,enough cells in well,290,258
Slc7a9,-0.07,enough cells in well,195,152
Hdhd3,0.24,enough cells in well,162,179
Oxct2b,0.35,enough cells in well,154,159
Sult2a2,-0.62,enough cells in well,236,157
Enpp3,0.37,enough cells in well,239,279
Adck5,0.76,enough cells in well,255,191
Tmbim6,-0.75,enough cells in well,206,80.1
Hes2,1.72,enough cells in well,418,239
Enpp4,-0.81,enough cells in well,168,166
Wdr48,-0.97,enough cells in well,139,109
Pfkfb2,1.16,enough cells in well,242,252
Pcdh7,-0.74,enough cells in well,194,127
Shc3,0.78,enough cells in well,370,256
Nmur2,-0.55,enough cells in well,189,81.1
Itm2b,0.31,enough cells in well,256,172
Aurkc,-0.4,enough cells in well,147,134
Shtn1,,fewer than 50 cells per well; well left out of calls,197,81.5
Zbtb7c,-0.46,enough cells in well,118,132
Mfap2,-0.02,enough cells in well,185,149
Xlr4b,-0.04,enough cells in well,77.1,126
Plp2,-0.41,enough cells in well,91.8,132
Mtln,-1.14,enough cells in well,178,37.1
Slpi,-0.61,enough cells in well,186,118
Nisch,-0.04,enough cells in well,202,134
Chil4,0.79,enough cells in well,201,232
Ivd,0.05,enough cells in well,216,173
Foxp1,0.33,enough cells in well,311,238
Tpm3,,fewer than 50 cells per well; well left out of calls,97.9,81.5
Foxa2,-0.04,enough cells in well,265,221
Ifna9,0.35,enough cells in well,287,191
Sectm1a,-0.07,enough cells in well,211,191
Omg,2.29,enough cells in well,271,226
Hsf2,0.57,enough cells in well,318,194
Pdcd1lg2,-0.71,enough cells in well,115,85.9
Fxyd7,-0.11,enough cells in well,197,160
4732427B05,-0.33,enough cells in well,167,59.7
Wnk1,0.39,enough cells in well,182,219

Entries above whose target name starts with A or a (2):
gene,Tnf reporter robust z-score,fewer than 50 cells in well,"Tnf reporter intensity, replicate 1","Tnf reporter intensity, replicate 2"
Adck5,0.76,enough cells in well,255,191
Aurkc,-0.4,enough cells in well,147,134
